Data: the supplement of paper PMC8256030
The list shows a part of the results. Repeats in this data set agree poorly, so a single value says little.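 HEK293T cells were given each compound shortly before transfection with a reporter in which red mCherry is followed by the SARS-CoV-2 frameshift element and then GFP in the −1 frame, so GFP appears only after frameshifting.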

Tested on: HEK293T
Experiment: percent viability (nuclei count) relative to control; higher = more viable cells
Conditions: 10 µM; 24 h

Row | SMILES | percent viability [%]
1 | O=C1CN(/N=C/c2ncc(-c3ccc(Br)cc3)o2)C(=O)N1 [azumolene] | 372
2 | N=C(NCCCCCCNC(=N)NC(=N)Nc1ccc(Cl)cc1)NC(=N)Nc1ccc(Cl)cc1 [Chlorhexidine] | 220
3 | CC[C@H]1OC(=O)[C@H](C)[C@@H](O[C@H]2C[C@@](C)(OC)[C@@H](O)[C@H](C)O2)[C@H](C)[C@@H](O[C@@H]2O[C@H](C)C[C@H](N(C)C)[C@H]2O)[C@](C)(O)C[C@@H](C)/C(=N/OC)[C@H](C)[C@@H](O)[C@]1(C)O [lexithromycin] | 119
4 | CCOCCn1c(N2CCCN(C)CC2)nc2ccccc21 [emedastine] | 303
5 | Cc1nnc(SCC2=C(C(=O)O)N3C(=O)[C@@H](NC(=O)Cn4cnnn4)[C@H]3SC2)s1 | 111
6 | COc1ccc(C(=O)CCC(=O)O)c2ccccc12 [menbutone] | 186
7 | COc1ccc2[nH]cc(CCNC(C)=O)c2c1 [Melatonin] | 341
8 | CCCOc1ccc(C(=O)OCCN(CC)CC)cc1N | 360
9 | O=C(O)Cc1cscc1Nc1c(Cl)cccc1Cl [eltenac] | 66.6
10 | CC1(C)S[C@@H]2[C@H](NC(=O)[C@H](C(=O)O)c3ccsc3)C(=O)N2[C@H]1C(=O)O [Ticar] | 255
11 | CC(C)(C)NCC(O)COc1cccc2c1CCC(=O)N2 (stereo not given) | 360
12 | CC(c1ccccc1)C1Nc2cc(Cl)c(S(N)(=O)=O)cc2S(=O)(=O)N1 (stereo not given) [bemetizide] | 362
13 | CO[C@@]1(NC(=O)CSCC#N)C(=O)N2C(C(=O)O)=C(CSc3nnnn3C)CS[C@@H]21 | 190
14 | Cc1ccc(S(=O)(=O)NC(=O)N[C@H]2[C@H]3CC[C@@](C)([C@H]2O)C3(C)C)cc1 [glibornuride] | 116
15 | Clc1cccc(Cl)c1NC1=NCCN1 | 143
16 | C=CCOc1ccccc1OCC(O)CNC(C)C (stereo not given) [oxprenolol] | 206
17 | CCC1=C[C@@H]2CN(C1)Cc1c([nH]c3ccccc13)[C@@](C(=O)OC)(c1cc3c(cc1OC)N(C)[C@H]1[C@@](O)(C(=O)OC)[C@H](OC(C)=O)[C@]4(CC)C=CCN5CC[C@]31[C@@H]54)C2 [Vinorelbine] | 18.5
18 | COc1ccc(C[C@H](N)C(=O)N[C@H]2[C@@H](O)[C@H](n3cnc4c(N(C)C)ncnc43)O[C@@H]2CO)cc1 | 52.3

Row | SMILES | percent viability [%]
19 | C=C[C@H]1CN2CC[C@H]1C[C@H]2[C@H](O)c1ccnc2ccc(OC)cc12 [Qualaquin] | 89.2
20 | CCC(=O)OCC(=O)[C@@]1(OC(=O)CC)[C@@H](C)C[C@H]2[C@@H]3CCC4=CC(=O)C=C[C@]4(C)[C@@]3(Cl)[C@@H](O)C[C@@]21C | 329
21 | CN1CCN(C(c2ccccc2)c2ccc(Cl)cc2)CC1 (stereo not given) | 202
22 | CC(SC(=O)c1cccs1)C(=O)NCC(=O)O (stereo not given) [stepronin] | 272
23 | NC(=O)Nc1ccc(S(=O)(=O)c2ccc(N)cc2)cc1 [amidapsone] | 113
24 | O=C(O)CN1C[C@@H](c2cccs2)SC[C@H](N[C@@H](CCc2ccccc2)C(=O)O)C1=O [temocaprilat] | 287
25 | COC(=O)CCC(=O)CN [Metvixia] | 271
26 | N[C@@H](Cc1cc(I)c(Oc2cc(I)c(O)c(I)c2)c(I)c1)C(=O)O | 98.6
27 | CCc1nnc(NS(=O)(=O)c2ccc(N)cc2)s1 [sulfaethidole] | 219
28 | CC/N=C(\NCC)NCCCC[C@H](NC(=O)[C@H](CC(C)C)NC(=O)[C@@H](CCCCN/C(=N/CC)NCC)NC(=O)[C@H](Cc1ccc(O)cc1)NC(=O)[C@H](CO)NC(=O)[C@@H](Cc1cccnc1)NC(=O)[C@@H](Cc1ccc(Cl)cc1)NC(=O)[C@@H](Cc1ccc2ccccc2c1)NC(C)=O)C(=O)N1CCC[C@H]1C(=O)N[C@H](C)C(N)=O [ganirelix] | 332
29 | CC(Cc1ccccc1)NN (stereo not given) [pheniprazine] | 143
30 | CC(N)C(=O)OC(C)(C)Cc1ccc(Cl)cc1 (stereo not given) [alaproclate] | 199
31 | CN(C)C(=N)NC(=N)N [metformin] | 208
32 | C[C@](N)(Cc1ccc(O)c(O)c1)C(=O)O | 214
33 | NCCCC(O)(P(=O)(O)O)P(=O)(O)O | 264
34 | Cn1nnnc1SCC1=C(C(=O)O)N2C(=O)[C@@H](NC(=O)[C@H](OC=O)c3ccccc3)[C@H]2SC1 | 265
35 | COC(=O)[C@H]1[C@H]2C[C@@H]3c4[nH]c5ccccc5c4CCN3C[C@H]2C[C@@H](OC(=O)c2cc(OC)c(OC)c(OC)c2)[C@@H]1OC [deserpidine] | 101

Some of the entries above, set out differently:
Row	SMILES	percent viability [%]
20	CCC(=O)OCC(=O)[C@@]1(OC(=O)CC)[C@@H](C)C[C@H]2[C@@H]3CCC4=CC(=O)C=C[C@]4(C)[C@@]3(Cl)[C@@H](O)C[C@@]21C	329
21	CN1CCN(C(c2ccccc2)c2ccc(Cl)cc2)CC1 (stereo not given)	202
22	CC(SC(=O)c1cccs1)C(=O)NCC(=O)O (stereo not given) [stepronin]	272
23	NC(=O)Nc1ccc(S(=O)(=O)c2ccc(N)cc2)cc1 [amidapsone]	113
24	O=C(O)CN1C[C@@H](c2cccs2)SC[C@H](N[C@@H](CCc2ccccc2)C(=O)O)C1=O [temocaprilat]	287
25	COC(=O)CCC(=O)CN [Metvixia]	271
26	N[C@@H](Cc1cc(I)c(Oc2cc(I)c(O)c(I)c2)c(I)c1)C(=O)O	98.6
27	CCc1nnc(NS(=O)(=O)c2ccc(N)cc2)s1 [sulfaethidole]	219
28	CC/N=C(\NCC)NCCCC[C@H](NC(=O)[C@H](CC(C)C)NC(=O)[C@@H](CCCCN/C(=N/CC)NCC)NC(=O)[C@H](Cc1ccc(O)cc1)NC(=O)[C@H](CO)NC(=O)[C@@H](Cc1cccnc1)NC(=O)[C@@H](Cc1ccc(Cl)cc1)NC(=O)[C@@H](Cc1ccc2ccccc2c1)NC(C)=O)C(=O)N1CCC[C@H]1C(=O)N[C@H](C)C(N)=O [ganirelix]	332
29	CC(Cc1ccccc1)NN (stereo not given) [pheniprazine]	143
